The supplement of paper PMC12067093, “Discovery and optimisation of a covalent ligand for TRIM25 and its application to targeted protein ubiquitination” (Chemical Science, 2025)
This is one part of the list.

Protein sequences, listed by entry. Tags and fused reporters are not part of them. Lines headed by an entry give the natural chain unless they say otherwise; changes in a name come on top.
UniProt Q86U44, whole entry, looked up: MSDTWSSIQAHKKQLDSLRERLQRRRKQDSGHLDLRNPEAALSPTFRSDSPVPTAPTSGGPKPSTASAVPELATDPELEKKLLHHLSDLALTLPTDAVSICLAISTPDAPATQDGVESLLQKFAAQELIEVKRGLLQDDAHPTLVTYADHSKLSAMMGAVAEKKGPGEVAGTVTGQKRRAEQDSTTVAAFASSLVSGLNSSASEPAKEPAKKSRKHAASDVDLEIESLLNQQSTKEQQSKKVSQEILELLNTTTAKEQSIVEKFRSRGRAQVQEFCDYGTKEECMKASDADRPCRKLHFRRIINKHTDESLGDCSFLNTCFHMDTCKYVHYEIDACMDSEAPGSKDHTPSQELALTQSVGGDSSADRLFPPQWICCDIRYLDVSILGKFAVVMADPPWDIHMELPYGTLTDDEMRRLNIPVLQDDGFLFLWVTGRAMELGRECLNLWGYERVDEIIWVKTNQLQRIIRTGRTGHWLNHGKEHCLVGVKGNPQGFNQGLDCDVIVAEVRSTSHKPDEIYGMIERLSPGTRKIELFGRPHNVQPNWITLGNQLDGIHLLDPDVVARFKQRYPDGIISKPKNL
UniProt O43513: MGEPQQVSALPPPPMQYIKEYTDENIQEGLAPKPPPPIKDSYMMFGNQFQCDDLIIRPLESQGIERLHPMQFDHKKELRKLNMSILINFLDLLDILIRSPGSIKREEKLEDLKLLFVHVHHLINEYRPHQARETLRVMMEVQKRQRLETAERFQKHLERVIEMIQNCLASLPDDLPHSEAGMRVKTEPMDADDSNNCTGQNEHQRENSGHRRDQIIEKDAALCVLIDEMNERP
UniProt O15553: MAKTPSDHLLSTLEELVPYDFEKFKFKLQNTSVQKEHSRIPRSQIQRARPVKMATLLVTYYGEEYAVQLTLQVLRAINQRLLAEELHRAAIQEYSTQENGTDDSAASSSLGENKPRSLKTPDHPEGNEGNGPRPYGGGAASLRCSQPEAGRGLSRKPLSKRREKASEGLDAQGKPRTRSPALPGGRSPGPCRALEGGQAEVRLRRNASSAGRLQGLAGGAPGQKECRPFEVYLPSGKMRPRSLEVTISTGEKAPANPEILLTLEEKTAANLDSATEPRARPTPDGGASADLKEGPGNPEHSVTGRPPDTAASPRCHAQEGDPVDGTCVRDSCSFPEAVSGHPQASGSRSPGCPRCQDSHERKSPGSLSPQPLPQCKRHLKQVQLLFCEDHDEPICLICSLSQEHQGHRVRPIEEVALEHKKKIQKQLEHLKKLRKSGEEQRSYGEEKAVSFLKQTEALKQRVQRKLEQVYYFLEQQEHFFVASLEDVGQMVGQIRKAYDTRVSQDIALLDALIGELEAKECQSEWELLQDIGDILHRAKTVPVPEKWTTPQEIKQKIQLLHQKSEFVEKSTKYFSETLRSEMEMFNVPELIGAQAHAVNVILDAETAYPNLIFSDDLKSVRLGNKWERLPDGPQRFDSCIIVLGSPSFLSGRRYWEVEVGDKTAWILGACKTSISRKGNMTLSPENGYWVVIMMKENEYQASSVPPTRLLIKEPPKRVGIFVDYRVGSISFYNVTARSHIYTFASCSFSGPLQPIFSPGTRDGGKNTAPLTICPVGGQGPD
UniProt Q6P1Q9: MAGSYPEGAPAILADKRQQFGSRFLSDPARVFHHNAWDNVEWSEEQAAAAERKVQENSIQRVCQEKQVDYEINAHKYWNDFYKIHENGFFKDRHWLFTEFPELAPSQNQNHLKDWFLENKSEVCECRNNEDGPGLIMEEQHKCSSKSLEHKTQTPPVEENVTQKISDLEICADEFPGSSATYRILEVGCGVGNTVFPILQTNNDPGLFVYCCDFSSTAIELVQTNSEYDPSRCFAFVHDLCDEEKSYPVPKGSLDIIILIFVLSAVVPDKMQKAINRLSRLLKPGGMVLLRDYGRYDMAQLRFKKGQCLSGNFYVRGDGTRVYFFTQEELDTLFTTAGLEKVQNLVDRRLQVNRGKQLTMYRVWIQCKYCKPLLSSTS
UniProt Q14566: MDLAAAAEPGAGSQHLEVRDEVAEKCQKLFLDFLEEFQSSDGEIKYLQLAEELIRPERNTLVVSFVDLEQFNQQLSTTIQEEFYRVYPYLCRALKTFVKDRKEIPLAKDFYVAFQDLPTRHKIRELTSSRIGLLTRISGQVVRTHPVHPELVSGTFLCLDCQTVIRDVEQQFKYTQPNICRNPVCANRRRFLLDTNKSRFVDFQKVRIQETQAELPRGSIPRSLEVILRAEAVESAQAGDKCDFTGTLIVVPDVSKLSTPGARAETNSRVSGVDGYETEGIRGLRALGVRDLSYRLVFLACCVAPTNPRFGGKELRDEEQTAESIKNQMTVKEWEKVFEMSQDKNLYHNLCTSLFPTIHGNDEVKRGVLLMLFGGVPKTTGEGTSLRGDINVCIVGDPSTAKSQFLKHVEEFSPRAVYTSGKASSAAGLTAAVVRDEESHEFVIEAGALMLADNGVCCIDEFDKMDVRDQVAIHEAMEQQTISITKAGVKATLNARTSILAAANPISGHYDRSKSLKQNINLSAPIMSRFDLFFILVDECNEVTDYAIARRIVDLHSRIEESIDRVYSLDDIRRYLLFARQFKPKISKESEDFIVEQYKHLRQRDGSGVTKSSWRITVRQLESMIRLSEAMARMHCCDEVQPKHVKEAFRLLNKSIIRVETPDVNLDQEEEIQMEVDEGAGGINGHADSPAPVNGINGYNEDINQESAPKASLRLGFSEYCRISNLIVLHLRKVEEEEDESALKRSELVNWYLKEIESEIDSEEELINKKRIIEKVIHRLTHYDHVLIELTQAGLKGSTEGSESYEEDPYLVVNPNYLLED
UniProt P49736, whole entry, looked up: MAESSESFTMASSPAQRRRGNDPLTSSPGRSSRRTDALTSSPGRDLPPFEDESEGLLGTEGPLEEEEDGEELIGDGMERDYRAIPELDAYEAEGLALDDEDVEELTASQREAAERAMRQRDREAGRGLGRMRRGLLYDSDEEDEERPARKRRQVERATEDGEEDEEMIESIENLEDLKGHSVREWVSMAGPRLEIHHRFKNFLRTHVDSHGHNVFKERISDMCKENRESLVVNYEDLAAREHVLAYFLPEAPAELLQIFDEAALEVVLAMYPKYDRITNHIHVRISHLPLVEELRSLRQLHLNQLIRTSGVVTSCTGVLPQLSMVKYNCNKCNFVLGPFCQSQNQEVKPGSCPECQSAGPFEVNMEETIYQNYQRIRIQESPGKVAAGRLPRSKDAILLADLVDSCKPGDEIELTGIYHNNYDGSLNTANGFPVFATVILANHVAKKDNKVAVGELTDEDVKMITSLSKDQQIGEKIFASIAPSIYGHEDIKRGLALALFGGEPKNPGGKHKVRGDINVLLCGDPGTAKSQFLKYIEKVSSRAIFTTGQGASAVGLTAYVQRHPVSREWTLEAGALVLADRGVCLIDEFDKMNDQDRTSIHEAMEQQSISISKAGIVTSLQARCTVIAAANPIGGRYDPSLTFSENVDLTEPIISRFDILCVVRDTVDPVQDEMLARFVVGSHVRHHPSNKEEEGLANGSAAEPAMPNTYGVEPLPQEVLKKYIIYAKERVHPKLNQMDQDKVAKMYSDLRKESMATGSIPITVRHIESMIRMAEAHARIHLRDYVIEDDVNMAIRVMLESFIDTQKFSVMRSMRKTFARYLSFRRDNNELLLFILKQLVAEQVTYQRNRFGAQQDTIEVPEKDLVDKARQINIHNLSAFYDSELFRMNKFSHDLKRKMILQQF

Compound: CC1Cc2ccccc2N1C(=O)C1CCCN(C1)C(=O)CCl (mixture of isomers) [TRIM25 ligand 11 (diastereomer mixture)]
Assay: probe-labelled cysteine peptide fold change vs DMSO (competition) (log2 fold change); higher = less target engagement (more negative = stronger competition)
Details: THP-1, incubation time: 4 h
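Also: competitive chemoproteomic profiling in live THP-1 cells with an iodoacetamide desthiobiotin (IA-DTB) probe, comparing probe-labelled peptide intensities in compound-treated cells against DMSO-treated controls.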

| Target | probe-labelled cysteine peptide fold change (10 µM) | probe-labelled cysteine peptide fold change (50 µM) |
| --- | --- | --- |
| METTL3_Q86U44_326_HTDESLGDCSFLNTCFHMDTCK (UniProt Q86U44) | 0.159 | 0.0527 |
| MED7_O43513_223_DAALCVLIDEMNERP (UniProt O43513) | 0.0565 | -0.131 |
| MEFV_O15553_375_KSPGSLSPQPLPQCK (UniProt O15553) | 0.0655 | -0.0174 |
| MDN1_Q9NU22_882_LFACMNPATDVGKR (UniProt Q9NU22) | -0.0968 | -0.078 |
| METTL2B_Q6P1Q9_233_CFAFVHDLCDEEK (UniProt Q6P1Q9) | 0.0278 | 0.14 |
| MCM6_Q14566_637_MHCCDEVQPK (UniProt Q14566) | -0.0366 | -0.0938 |
| MCM2_P49736_624_CTVIAAANPIGGR (UniProt P49736) | 0.0682 | 0.0292 |
